# What follows is the remainder of the data, with few or none of the hits.
# Test system: Plasmodium falciparum NF54/iGP1_RE9H ulg8 stage V gametocytes
# Assay: gametocyte viability (luciferase signal relative to DMSO control) (% of DMSO control); higher = less gametocytocidal activity, active = 50 or less
# Details: concentration: 1 µM; exposure time: 72 h
# Description: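 Synchronous P. falciparum NF54/iGP1_RE9H ulg8 mature stage V gametocytes (day 12) were exposed to Cayman Epigenetics Screening Library compounds at 10 µM or 1 µM for 72 h at 37 °C. Viability was read as RE9H luciferase bioluminescence, normalised to DMSO plate controls (100%); 50 µM methylene blue was the positive control. Single point; hits were called at >50% inhibition.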
row,Compound,gametocyte viability
1,Cc1ccc(C(=O)NCCCCCC(=O)Nc2ccccc2N)cc1,inactive: 83.5

# Same assay, conditions: concentration: 10 µM; exposure time: 72 h
row,Compound,gametocyte viability
1,Cc1ccc(C(=O)NCCCCCC(=O)Nc2ccccc2N)cc1,inactive: 87

# From the supplement of paper PMC12297408
